The results in this text go back to paper doi:10.1101/2023.07.25.550451.

The target in the assay is T1, GST-FAM104B isoform 3 (human) (UniProt Q5XKR9).
T1 sequence: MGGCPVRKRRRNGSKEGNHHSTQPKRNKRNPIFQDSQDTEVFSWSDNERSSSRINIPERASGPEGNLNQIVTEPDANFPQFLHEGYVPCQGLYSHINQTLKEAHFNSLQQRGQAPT
The experiment in a line: pull-down.

No constants are given. Whether binding was seen depends on the method and setting. Binding can be weak; no strength is given. Sequences can lack the tags named with a protein.

On to “p97 N domain (human) (domain or fragment)”, for which the binding entry is “binds”.
